According to PubChem BioAssay AID2685 (National Center for Advancing Translational Sciences (NCATS), 2010):
This is one part of the list. The main result of the screen is listed elsewhere. These columns were measured beside it and carry no call. Compounds called inactive in the main read-out are mostly missing here. The note in brackets gives the kind of curve behind each potency; many fits are weak.

Assay: qHTS Assay for Lipid Storage Modulators in Drosophila S3 Cells;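 for cell number change: cells counted by Cell Tracker Red CMTPX staining in the red channel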
Conditions: BODIPY lipid droplet fluorescence, 18-24 h; for cell number change: measured here: cell count max response, cells fed with added oleic acid
Outline: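 Drosophila S3 cells got compounds at several concentrations plus oleic acid (400 uM solution). Laser-scanning cytometry with 488 nm excitation read lipid droplets at 500-530 nm and cells at 575-640 nm. Percent activity was relative to 20 uM Triacsin C.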

[1] = measured here: lipid fluorescence (Fed channel) AC50, cells fed with added oleic acid
[2] = measured here: cell number channel AC50, cells fed with added oleic acid

## Cn1nc(C(C)(C)C)cc1NC(=O)Nc1cc(Cl)cc(Cl)c1
  cell number change: -22.2%
[1]
  AC50: 16.4 µM [falling, single point]

## CCC(=O)Nc1cccc(C(=O)OCc2cccc([N+](=O)[O-])c2)c1
[2]
  AC50: 0.103 µM [falling, full curve]
[1]
  AC50: 4.11 µM [falling, partial curve]

## COc1ccc(S(=O)(=O)N(CC(=O)Nc2ccc(S(=O)(=O)N3CCOCC3)cc2)c2ccccc2)cc1
  cell number change: -9.14%
[1]
  AC50: 16.4 µM [falling, single point]

## Cc1sc(/N=C/c2ccccc2O)c(C#N)c1C
  cell number change: 20.1%

## CCCCn1c(SCC(=O)c2cc(OC)ccc2OC)nc2cc(S(N)(=O)=O)ccc21
  cell number change: 61.2%
[2]
  AC50: 7.31 µM [rising, partial curve]
[1]
  AC50: 4.11 µM [rising, single point]

## Cc1cccc(OCCn2c(=S)[nH]c3ccccc32)c1
  cell number change: -53%
[2]
  AC50: 18.4 µM [falling, single point]
[1]
  AC50: 23.1 µM [falling, partial curve, poor fit]

## O=C(Oc1ccc2c(c1)O/C(=C\c1ccncc1)C2=O)c1ccccc1
  cell number change: -20.2%
[1]
  AC50: 2.06 µM [falling, partial curve]

## CCOc1ccc(CN2CCNC(=O)C2CC(=O)NCCc2cnccn2)cc1 (stereo not drawn)
  cell number change: 8.25%

## CC(C)=NOCC(=O)Nn1c(COc2ccccc2)nc2ccccc2c1=O
  cell number change: -8.73%

## Cc1cnc(C(=O)OCC(=O)NCc2cccc(Cl)c2)cn1
  cell number change: -7.71%
[2]
  AC50: 6.51 µM [falling, single point]

## CCOC(=O)CN1C(=O)C(C)(C)Oc2ccc(C(=O)Nc3ccccc3OC)cc21
  cell number change: 36.1%
[2]
  AC50: 0.184 µM [rising, full curve]
[1]
  AC50: 0.13 µM [rising, full curve]

## Cn1cccc1C(=O)OCc1ccc(C(C)(C)C)cc1
  cell number change: -3.95%
[1]
  AC50: 5.62 µM [falling, single point]

## COc1ccc(CN2CCN(C)CC2)cc1OCc1ccccc1
[1]
  AC50: 20.6 µM [falling, partial curve]

## CCCOc1ccc2c3c(c(=O)oc2c1OCCC)CCC3
  cell number change: -12.1%
[1]
  AC50: 1.64 µM [rising, partial curve]

## COC(=O)CCC(=O)OC1(C)C(=O)C2=CN(C3CCCC3)C(c3ccc(OC)cc3)=CC2=C(Br)C1=O (stereo not drawn)
  cell number change: -50.7%
[2]
  AC50: 16.4 µM [falling, single point]
[1]
  AC50: 23.1 µM [falling, single point]

## O=C(NC1CCCc2ccccc21)c1cc(S(=O)(=O)N2CCOCC2)ccc1F (stereo not drawn)
  cell number change: 43.2%
[2]
  AC50: 13 µM [rising, single point]

## N#Cc1cccc(NC(=O)CCNC(=O)c2ccccc2Cl)c1
  cell number change: 2.78%

## C/C(=N\Nc1cc(C)nc(-c2ccccc2)n1)c1cccc([N+](=O)[O-])c1
  cell number change: -15.6%

## CC(C)Nc1nc(NC(N)=S)nc(NC(C)C)n1
  cell number change: 11.5%

## COc1ccc(S(=O)(=O)Oc2cc(C(=S)N3CCOCC3)ccc2OC)cc1
  cell number change: -10.2%

## CN(CC(=O)Nc1ccc(Cl)cc1)C(=O)c1ccc(COc2ccccc2)cc1
  cell number change: -42%
[2]
  AC50: 20.6 µM [falling, partial curve, poor fit]
[1]
  AC50: 23.1 µM [falling, partial curve, poor fit]

## O=C(COc1ccc2c3c(c(=O)oc2c1)CCCC3)N1CCN(c2ccc(F)cc2)CC1
  cell number change: -7.31%
[1]
  AC50: 29.1 µM [falling, single point]

## COC(=O)c1ccccc1NC(=O)CSc1n[nH]c(CC(C)C)n1
  cell number change: 7%
[1]
  AC50: 6.51 µM [rising, partial curve]

## O=C(O)C(Oc1ccc2c(-c3ccccc3)cc(=O)oc2c1)c1ccccc1 (stereo not drawn)
  cell number change: 16%
[1]
  AC50: 10.3 µM [rising, partial curve, poor fit]

## CC(C)C(NS(=O)(=O)c1ccc2c(c1)oc(=O)n2C)C(=O)N1CCN(c2ccccc2F)CC1 (stereo not drawn)
  cell number change: -4.62%
[1]
  AC50: 32.6 µM [rising, single point]

## CCOc1ccc(C(C#N)N2CCOCC2)cc1OC (stereo not drawn)
  cell number change: 6%

## Cc1cc(C)c(S(=O)(=O)Cc2ccccc2)c(Cl)n1
  cell number change: 2.82%
[1]
  AC50: 3.26 µM [rising, single point]

## COc1ccccc1/C=N/NC(=O)c1ccc(CN2C(=O)c3cccc4cccc2c34)cc1
  cell number change: 11.3%
[1]
  AC50: 4.61 µM [rising, single point]

## C=C(C)CN1CCN(c2ccc(N3C(=O)CCCC3=O)cc2[N+](=O)[O-])CC1
[2]
  AC50: 6.51 µM [falling, single point]

## Cc1nc2c([N+](=O)[O-])c(C)c(C)cc2[nH]1
  cell number change: -48.6%
[2]
  AC50: 25.9 µM [falling, single point]
[1]
  AC50: 29.1 µM [falling, single point]

## O=C(NCCCN1CCOCC1)c1ccc(/C=C2\Oc3ccccc3N(Cc3ccccc3F)C2=O)cc1
[1]
  AC50: 3.26 µM [rising, partial curve]

## CCCCNC(=O)NS(=O)(=O)c1ccc(NC(=O)CCC(=O)c2cccs2)cc1
  cell number change: 23.7%
[1]
  AC50: 0.58 µM [rising, single point]

## O=C(O)C1(NS(=O)(=O)c2ccc(Cl)cc2)CCCCC1
  cell number change: -32%
[2]
  AC50: 16.4 µM [falling, partial curve, poor fit]

## CCCN(Cc1ccc(N(CC)CC)cc1)CC1CC1
  cell number change: 17.7%
[1]
  AC50: 7.31 µM [rising, partial curve]

## CNC(=O)c1cc2ccc(OC)cc2oc1=O
[2]
  AC50: 6.51 µM [falling, single point]

## O=C(c1cccc(-c2nnc(-c3ccccc3)o2)c1)N1CCCCCC1
  cell number change: 12.3%
[2]
  AC50: 0.058 µM [rising, full curve, poor fit]

## CCN(CC)/C(=N/O)NC(=O)NS(=O)(=O)c1ccc(C)cc1
  cell number change: 1.28%
[1]
  AC50: 7.31 µM [falling, partial curve, poor fit]

## CCCN(C(=O)c1ccc2c(SCC(=O)O)c3c(nc2c1)CCC3)c1cccc(C)c1
  cell number change: 13.9%
[1]
  AC50: 0.58 µM [falling, partial curve]

## O=C(NC1CCCCC1)C(c1ccncc1)N(C(=O)c1csnn1)c1ccccc1 (stereo not drawn)
  cell number change: 5.46%

## Cc1cccc(C)c1NC(=O)CN(C)C(=O)[C@H](C)NC(=O)c1ccco1
  cell number change: -23.4%
[2]
  AC50: 2.06 µM [falling, partial curve]
[1]
  AC50: 4.11 µM [rising, full curve, poor fit]

## CCc1nc(SCC(=O)Nc2ccccc2C(=O)OC)n[nH]1
  cell number change: 8.4%
[1]
  AC50: 5.8 µM [rising, single point]

## CCOC(=O)c1[nH]c2ccc(F)cc2c1NC(=O)C1=COCCO1
  cell number change: 18.2%
[1]
  AC50: 20.6 µM [rising, partial curve]

## CC[N+](C)(CC)CCC(c1ccccc1)C1CCCCC1 (stereo not drawn)
  cell number change: 17.9%

## Cc1ccc(NC(=O)NCC(c2ccccc2)N(C)C)cc1 (stereo not drawn)
  cell number change: 17.3%
[1]
  AC50: 7.31 µM [rising, partial curve]

## Nc1nonc1OCCOCCOCCOc1nonc1N
  cell number change: 5.96%
[2]
  AC50: 0.58 µM [falling, single point]

## CCC(=O)N1CCN(c2ccccc2NC(=O)COc2cccc(C)c2C)CC1
  cell number change: -29.5%
[1]
  AC50: 29.1 µM [falling, single point]

## O=C(c1ccco1)N1CCN(C(=O)c2nn3cccnc3c2Cl)CC1
  cell number change: 15.1%
[1]
  AC50: 20.6 µM [rising, single point]

## Cc1onc(-c2ccccc2Cl)c1C(=O)N(C)CC(=O)Nc1ccc(F)c(F)c1F
[1]
  AC50: 6.51 µM [falling, partial curve, poor fit]

## Cc1cccc(C)c1Nc1nnc(SC/C(O)=C(\C#N)c2nc3ccccc3[nH]2)s1
  cell number change: 29.3%
[1]
  AC50: 2.59 µM [rising, full curve]

## CCO[C@@H]1OC(C(=O)O)=C[C@H](c2csc3ccccc23)[C@H]1CCCO
  cell number change: 2.65%
[1]
  AC50: 0.58 µM [falling, single point]

## Cc1c(/C(O)=C2/C(=O)C(=O)N(CCN3CCOCC3)C2c2cccs2)cnn1-c1ccccc1 (stereo not drawn)
  cell number change: 68.8%
[2]
  AC50: 23.1 µM [rising, single point]
[1]
  AC50: 29.1 µM [rising, single point]

## COC(=O)CCC(=O)NC(=S)Nc1cc(Cl)ccc1Cl
  cell number change: -8.23%

## O=C(CSc1nc2[nH]c(=O)[nH]c(=O)c2s1)Nc1cccc(F)c1
  cell number change: 13.4%
[1]
  AC50: 3.26 µM [rising, single point]

## O=C(NCCN1CCOCC1)/C(=C/c1ccccc1)NC(=O)c1ccccc1
  cell number change: 6.58%
[2]
  AC50: 0.82 µM [falling, full curve, poor fit]

## O=C(C1CCCN(Cc2ccccc2F)C1)N1CCCCC1 (stereo not drawn)
  cell number change: -23.7%
[1]
  AC50: 0.82 µM [falling, full curve]

## COc1cccc(-c2cc(C(=O)N3CCc4ccccc4C3)[nH]n2)c1
  cell number change: -8.66%

## CCN1C(=O)C2(SC(NC(C)=O)=NN2C(C)=O)c2cc(C)cc(C)c21 (stereo not drawn)
  cell number change: 2.67%
[2]
  AC50: 0.731 µM [rising, partial curve, poor fit]

## c1cn(-c2ccc(-c3ccnc4ncnn34)cc2)cn1
[2]
  AC50: 1.03 µM [rising, full curve, poor fit]

## Cc1cccc(C(C)(C)C)c1OCCn1ccnc1
[2]
  AC50: 2.59 µM [rising, partial curve]
[1]
  AC50: 0.58 µM [rising, single point]

## O=C(Nc1cccs1)N1CCN(c2ncccn2)CC1
  cell number change: 16.7%

## Cc1ccc(NC(=O)COC(=O)c2csc3c2CCC(C)C3)cc1S(=O)(=O)N1CCCCC1 (stereo not drawn)
  cell number change: 28.9%
[1]
  AC50: 18.4 µM [rising, single point]

## COc1ccc(-c2cn[nH]c2-c2ccc(O)cc2O)cc1OC
  cell number change: -6.34%
[1]
  AC50: 7.31 µM [falling, partial curve]
